Source: PMC3044714
Results are given in words; binding and its absence hold for the method and conditions named. In cells and extracts the contact can be indirect. Some results given as binding are weak or reduced against the parent protein; the word gives no strength. Blank lines part the entries; values can stand above or below the binder they belong to.

Assays:
[1] = target: T1, 14-3-3ζ (human (endogenous in SCC4)), P63104; assay: co-IP; whole cell lysates of SCC4 cells treated with ST (20 µg/ml) or nicotine (10 µM) for different time intervals; 14-3-3ζ immunoprecipitated and pBad blotted, and in reverse pBad immunoprecipitated and 14-3-3ζ blotted; Protein A-sepharose beads; details: remark: other sources report otherwise
T1 chain: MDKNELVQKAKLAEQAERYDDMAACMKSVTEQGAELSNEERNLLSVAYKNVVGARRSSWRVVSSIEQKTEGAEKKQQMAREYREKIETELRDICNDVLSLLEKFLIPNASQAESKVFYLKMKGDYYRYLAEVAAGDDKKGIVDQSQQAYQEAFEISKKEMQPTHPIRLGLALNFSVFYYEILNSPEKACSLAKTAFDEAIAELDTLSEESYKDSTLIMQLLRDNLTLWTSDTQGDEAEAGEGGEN

[2] = target: T2, pBad (Bad phosphorylated at Ser-136) (human (endogenous in SCC4)), Q92934; assay: as above; details: remark: other sources report otherwise
T2 chain: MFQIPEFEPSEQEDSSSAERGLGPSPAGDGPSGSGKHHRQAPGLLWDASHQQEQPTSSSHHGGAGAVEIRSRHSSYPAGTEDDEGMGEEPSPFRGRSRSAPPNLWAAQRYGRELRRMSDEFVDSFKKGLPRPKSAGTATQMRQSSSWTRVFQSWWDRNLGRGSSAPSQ

- binding [1]: binds
B1: pBad (Bad phosphorylated at Ser-136), Q92934 1-168 (protein)
chain: T2 chain
modifications: here or on the partner: phosphoserine at 136 (Ser-136 as printed)

- binding [2]: binds
B2: 14-3-3ζ, P63104 1-245 (protein)
chain: T1 chain
modifications: here or on the partner: phosphoserine at 136 (Ser-136 as printed)
